Experimental data from patent US20260049064A1, “PROTEIN:PROTEIN INTERACTION INHIBITORS” (Purdue Research Foundation, priority 2022, published 2026).
The amount applied is not stated for every result.

System: LNCaP cells
Test: RNA-seq differential expression in LNCaP cells
Assay type: cell-based, human
Details: 72 hours

Compound: CCc1noc(C)c1COc1cccc(C(=O)NNC(=O)c2ccc3ccccc3n2)c1 [compound 17, N′-(3-((3-ethyl-5-methylisoxazol-4-yl)methoxy)benzoyl)quinoline-2-carbohydrazide]
- differentially expressed genes (DEGs) versus DMSO control: 1,493 genes
- down-regulated genes: 582 genes
- up-regulated genes: 911 genes
